{"source": "PubChem BioAssay AID240", "about": "(DTP/NCI, 2004)", "tested_on": "Lymphoma 4 ip in BDF1 mice, median survival", "experiment": "NCI In Vivo Anticancer Drug Screen. Data for tumor model Lymphoma 4 (intraperitoneal) in B6D2F1 (BDF1) mice", "conditions": "T/C endpoint: median survival time, schedule: Q01DX010 (ip), higher T/C = longer survival", "method": "The antitumor activity of compounds was measured in mice bearing transplantable tumors. Survival or tumor size were measured and the results are expressed as the measurement made in the treated group (T) divided by the measurement made in the vehicle treated control group (C). The tumor model used in this assay is Lymphoma 4 (intraperitoneal) in B6D2F1 (BDF1) mice", "key": {"[1]": {"conditions": "dose: 500.0 mg/kg/injection, vehicle: saline"}, "[2]": {"conditions": "dose: 20.0 mg/kg/injection, vehicle: saline"}, "[3]": {"conditions": "dose: 40.0 mg/kg/injection, vehicle: saline"}, "[4]": {"conditions": "dose: 80.0 mg/kg/injection, vehicle: saline"}, "[5]": {"conditions": "dose: 100.0 mg/kg/injection, vehicle: saline"}, "[6]": {"conditions": "dose: 5.0 mg/kg/injection, vehicle: saline"}}, "note": "The list is a part of this screen's results and no random one: it gathers tests that were run many times, whatever their T/C, doses with no T/C, and many T/C values between a quarter and a half above the control. Other doses and runs of a compound stand elsewhere. T/C gives the treated animals as a percentage of the vehicle group. Some entries give survivors of the animals treated and no T/C: the source holds a T/C of zero for them, seemingly a mark for toxic or unscored doses. Some survivor counts are full or nearly so, which does not show that the dose was tolerated: the source hardly ever lists a survival T/C far under the control, and the zero likely stands for such cases as well. Counts of survivors are from the toxicity check (mostly the fifth day) where no day follows; animals may have died later. Schedule codes are those of the source, read here as Q, the interval in days (D) or hours (H), X, the number of doses. Some entries hold several experiments; their values stand side by side, smallest first. For survival time, the PubChem record calls one and a half times the control and up active, and a quarter to a half above the control has no call in these data; cut-offs in other NCI protocols can differ. Some T/C values are followed by the survivors on the day toxicity was checked, most often the fifth; where none is given, no animal had died by that day. Starred links: 1 amine or outer side, 2 acyl side, 3 side chain; linkers in the order of their positions; H or OH if unused. Positions of bridges follow the written chain, without caps; N, C: chain ends. Non-standard residues stand in square brackets, D forms with d. Residues, ends and D or L forms follow the SMILES beside them. Chains are numbered I, II in the order given. Actinocin(9to1) = Cc1c2oc3c(C)ccc(C(=O)[*:1])c3nc-2c(C(=O)[*:2])c(N)c1=O; aThr = C[C@H](O)[C@H](N)C(=O)O; NMeV = CN[C@H](C(=O)O)C(C)C; Sar = CNCC(=O)O"}
{"smiles": "Nc1nc(=S)c2ncn(C3OC(CO)C(O)C3O)c2[nH]1", "note": "(stereo not given)", "values": [{"measurement": "survivor count", "setting": "dose: 2.0 mg/kg/injection, vehicle: saline", "value": "6 of 6"}, {"measurement": "survivor count", "setting": "dose: 4.0 mg/kg/injection, vehicle: saline", "value": "6 of 6"}, {"measurement": "survivor count", "setting": "dose: 8.0 mg/kg/injection, vehicle: saline", "value": "5 of 6"}]}
{"smiles": "CC(=O)N(C)C", "values": [{"measurement": "survivor count", "setting": "dose: 62.5 mg/kg/injection, vehicle: saline", "value": "6 of 6"}, {"measurement": "survivor count", "setting": "dose: 125.0 mg/kg/injection, vehicle: saline", "value": "6 of 6"}, {"measurement": "survivor count", "setting": "dose: 250.0 mg/kg/injection, vehicle: saline", "value": "5 of 6"}, {"measurement": "survivor count", "setting": "[1]", "value": "6 of 6"}]}
{"smiles": "COc1cc(-c2ccc(Nc3ccccc3C(=O)O)c(OC)c2)ccc1N", "values": [{"measurement": "T/C", "setting": "[2]", "value": "126 % of control"}, {"measurement": "T/C", "setting": "[3]", "value": "126 % of control"}, {"measurement": "T/C", "setting": "[4]", "value": "134 % of control [5 of 6 alive]"}]}
{"smiles": "Nc1nc(SCc2ccccc2)c2[nH]cnc2n1", "values": [{"measurement": "survivor count", "setting": "dose: 32.0 mg/kg/injection, vehicle: saline", "value": "6 of 6"}, {"measurement": "survivor count", "setting": "dose: 64.0 mg/kg/injection, vehicle: saline", "value": "6 of 6"}]}
{"smiles": "OC(CBr)C(O)C(O)C(O)CBr", "note": "(stereo not given)", "values": [{"measurement": "T/C", "setting": "[5]", "value": "134 % of control"}]}
{"smiles": "N=[N+]=CC(=O)OCC(N)C(=O)O", "note": "(stereo not given)", "values": [{"measurement": "survivor count", "setting": "dose: 25.0 mg/kg/injection, vehicle: saline", "value": "6 of 6"}]}
{"smiles": "CCOC(=O)c1[nH]c2ccccc2c1CN(CCCl)CCCl", "values": [{"measurement": "T/C", "setting": "[2]", "value": "140 % of control"}, {"measurement": "survivor count", "setting": "[3]", "value": "6 of 6"}, {"measurement": "survivor count", "setting": "[4]", "value": "0 of 6"}]}
{"smiles": "CCOC(N)=O", "values": [{"measurement": "survivor count", "setting": "[1]", "value": "6 of 6"}, {"measurement": "survivor count", "setting": "dose: 1000.0 mg/kg/injection, vehicle: saline", "value": "4 of 6 and 6 of 6"}]}
{"smiles": "CCN(CC)CCNc1ccc(C)c2sc3ccccc3c(=O)c12", "values": [{"measurement": "survivor count", "setting": "[5]", "value": "6 of 6"}, {"measurement": "survivor count", "setting": "dose: 200.0 mg/kg/injection, vehicle: saline", "value": "5 of 6 and 6 of 6"}]}
{"smiles": "Nc1nc(=S)c2[nH]cnc2[nH]1", "values": [{"measurement": "survivor count", "setting": "dose: 1.25 mg/kg/injection, vehicle: other", "value": "6 of 6"}, {"measurement": "survivor count", "setting": "dose: 2.5 mg/kg/injection, vehicle: other", "value": "6 of 6"}, {"measurement": "survivor count", "setting": "dose: 5.0 mg/kg/injection, vehicle: other", "value": "6 of 6"}, {"measurement": "survivor count", "setting": "[6]", "value": "6 of 6"}, {"measurement": "survivor count", "setting": "dose: 10.0 mg/kg/injection, vehicle: other", "value": "5 of 6 and 6 of 6"}, {"measurement": "survivor count", "setting": "dose: 10.0 mg/kg/injection, vehicle: saline", "value": "5 of 6 and 6 of 6"}]}
{"smiles": "Cc1c2oc3c(C)ccc(C(=O)N[C@@H]4C(=O)N[C@H](C(C)C)C(=O)N5CCC[C@H]5C(=O)N(C)CC(=O)N(C)[C@@H](C(C)C)C(=O)O[C@H]4C)c3nc-2c(C(=O)N[C@@H]2C(=O)N[C@H](C(C)C)C(=O)N3CCC[C@H]3C(=O)N(C)CC(=O)N(C)[C@@H](C(C)C)C(=O)O[C@H]2C)c(N)c1=O", "note": "(I: [aThr][dV]P[Sar][NMeV] / II: [aThr][dV]P[Sar][NMeV]; ester I:1-I:C, II:1-II:C; linker I:N-II:N via Actinocin(9to1))", "values": [{"measurement": "T/C", "setting": "dose: 25.0 micrograms/kg/injection, vehicle: other", "value": "141 % of control"}, {"measurement": "survivor count", "setting": "dose: 100.0 micrograms/kg/injection, vehicle: other", "value": "6 of 6"}]}
{"smiles": "O=C(Nc1ccc(C2=NCCCN2)cc1)c1ccc(NC(=O)c2ccc(C3=NCCCN3)cc2)cc1", "values": [{"measurement": "T/C", "setting": "dose: 1.0 mg/kg/injection, vehicle: other", "value": "103, 105, 106 [5 of 6 alive], 120 % of control"}, {"measurement": "T/C", "setting": "dose: 2.0 mg/kg/injection, vehicle: other", "value": "112, 120, 129, 143 % of control"}, {"measurement": "T/C", "setting": "dose: 4.0 mg/kg/injection, vehicle: other", "value": "170, 184, 209, 235 % of control"}, {"measurement": "T/C", "setting": "dose: 8.0 mg/kg/injection, vehicle: other", "value": "100, 115, 126, 140 % of control"}, {"measurement": "survivor count", "setting": "dose: 16.0 mg/kg/injection, vehicle: other", "value": "5 of 6 and 6 of 6"}]}
{"smiles": "O=c1[nH]cc(F)c(=O)[nH]1", "values": [{"measurement": "T/C", "setting": "[6]", "value": "144 % of control"}, {"measurement": "survivor count", "setting": "[3]", "value": "6 of 6"}]}
{"smiles": "O=c1[nH]c(=O)n(C2CC(O)C(CO)O2)cc1F", "note": "(stereo not given)", "values": [{"measurement": "T/C", "setting": "[3]", "value": "132 % of control"}, {"measurement": "T/C", "setting": "[4]", "value": "129 % of control"}, {"measurement": "survivor count", "setting": "[4]", "value": "6 of 6"}, {"measurement": "survivor count", "setting": "dose: 160.0 mg/kg/injection, vehicle: saline", "value": "6 of 6"}]}
